Values of other authors in US5444085A, “Methods of inhibiting HIV and inhibiting the activation of HIV” (Warner-Lambert Company, priority 1994, dated 1995).

System: HIV-infected cells
Conditions: Hamamoto et al. 1989; cited from earlier work

## CN[C@@H]1C[C@H]2O[C@@](C)([C@@H]1OC)n1c3ccccc3c3c4c(c5c6ccccc6n2c5c31)C(=O)NC4 [Staurosporine, staurosporine]
  inhibition of TPA-mediated CD4 down regulation and augmentation of HIV expression: effective TPA inhibitor for both of these actions
